This is an account of results in publication PMC7070087.

Protein sequences, listed by entry. Tags and fused reporters are not part of them.
UniProt P84022: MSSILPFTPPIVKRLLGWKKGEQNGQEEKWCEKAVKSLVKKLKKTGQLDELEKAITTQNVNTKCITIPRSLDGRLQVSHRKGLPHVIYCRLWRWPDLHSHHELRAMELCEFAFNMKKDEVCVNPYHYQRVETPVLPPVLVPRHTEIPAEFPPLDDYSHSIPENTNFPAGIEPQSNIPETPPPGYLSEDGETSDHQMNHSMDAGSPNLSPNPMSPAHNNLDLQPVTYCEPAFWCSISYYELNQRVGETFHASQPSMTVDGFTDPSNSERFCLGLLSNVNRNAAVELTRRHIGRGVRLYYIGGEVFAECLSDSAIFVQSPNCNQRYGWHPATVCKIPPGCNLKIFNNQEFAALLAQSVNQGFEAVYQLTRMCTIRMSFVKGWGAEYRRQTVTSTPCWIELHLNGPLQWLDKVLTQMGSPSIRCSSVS
UniProt Q9R1E0: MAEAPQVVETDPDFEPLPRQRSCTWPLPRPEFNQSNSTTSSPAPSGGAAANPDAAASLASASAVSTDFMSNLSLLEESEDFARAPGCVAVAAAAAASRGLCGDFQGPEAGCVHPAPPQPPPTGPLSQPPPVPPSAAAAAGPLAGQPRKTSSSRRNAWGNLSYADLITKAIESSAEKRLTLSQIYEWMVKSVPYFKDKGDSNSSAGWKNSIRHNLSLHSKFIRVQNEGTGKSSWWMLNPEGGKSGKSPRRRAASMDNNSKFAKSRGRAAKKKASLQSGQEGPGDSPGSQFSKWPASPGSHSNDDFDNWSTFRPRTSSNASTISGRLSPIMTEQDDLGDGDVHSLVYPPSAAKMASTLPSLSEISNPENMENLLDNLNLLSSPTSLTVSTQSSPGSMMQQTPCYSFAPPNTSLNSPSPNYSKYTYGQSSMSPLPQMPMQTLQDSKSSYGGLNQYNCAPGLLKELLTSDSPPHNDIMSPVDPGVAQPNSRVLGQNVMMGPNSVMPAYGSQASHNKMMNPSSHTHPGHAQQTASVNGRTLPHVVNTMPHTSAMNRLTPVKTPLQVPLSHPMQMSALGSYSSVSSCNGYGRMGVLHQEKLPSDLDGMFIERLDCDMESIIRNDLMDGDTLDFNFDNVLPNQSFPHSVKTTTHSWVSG
UniProt Q8BUN5: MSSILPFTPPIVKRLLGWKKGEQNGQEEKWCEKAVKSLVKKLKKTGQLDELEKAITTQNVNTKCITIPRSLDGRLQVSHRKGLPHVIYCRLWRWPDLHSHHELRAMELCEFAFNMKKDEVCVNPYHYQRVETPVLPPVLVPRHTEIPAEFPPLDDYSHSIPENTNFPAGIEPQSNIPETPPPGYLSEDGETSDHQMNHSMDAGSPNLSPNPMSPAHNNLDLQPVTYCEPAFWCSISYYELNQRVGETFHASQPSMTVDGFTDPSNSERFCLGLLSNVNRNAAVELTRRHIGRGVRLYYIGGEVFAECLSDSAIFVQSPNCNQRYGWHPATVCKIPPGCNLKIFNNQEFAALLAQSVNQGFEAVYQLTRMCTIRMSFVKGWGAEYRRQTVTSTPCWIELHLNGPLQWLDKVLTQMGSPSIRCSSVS

Results are given in words; binding and its absence hold for the method and conditions named. Binding seen in cells or lysates may run through a third protein.

One test deals with Flag-tagged WT Smad3 (UniProt P84022). As to the kind of experiment: co-IP; as a1, cells treated with 5 ng/ml TGF-β1 and 0.5 mM palmitate together with 10 µM SB431542 (TβR1 kinase inhibitor) for 24 h; IP with mouse anti-Flag, blot with rabbit anti-FOXO1.
The target of test [1] is FOXO1 (mouse (endogenous in MIN6)) (UniProt Q9R1E0). As to the kind of experiment: co-IP; as a3, untransfected MIN6 cells treated with 5 ng/ml TGF-β1 and 0.5 mM palmitate together with 10 µM SB431542 for 24 h; IP with rabbit anti-FOXO1, blot with mouse anti-Smad3.

In the case of FOXO1 (from UniProt Q9R1E0 1-652), the binding entry in the test with Flag-tagged WT Smad3 is recorded as “no binding (condition: cells treated with 10 µM SB431542)”.
As to “Smad3 (endogenous) (from UniProt Q8BUN5 1-425)”, the binding result in test [1] is given as “no binding (condition: cells treated with 10 µM SB431542)”.
